Source: PubChem BioAssay AID504808 (Drosophila RNAi Screening Center, 2011)
The deposit covers about 21,000 reagents; below is a random part of those with a known target gene and a result. Of all reagents, 18 (0.084%) are marked active. 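Raw counts without plate normalisation, one of two replicates; the ratio scores behind the calls were not deposited.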 Unmarked entries are inactive. Reagents against one gene are numbered here. Not given: the amount of reagent, the time to read-out.

Purpose: 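Genes whose loss lifts activity of an E2F-responsive reporter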 (primary screen)
Cell system: Drosophila S2 cells
Reagents: long dsRNA against Drosophila genes
Measurement: 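Dual luciferase plate measurements; E2F-specific signal taken as firefly over Renilla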
Reading the numbers: E2F firefly: higher = more E2F reporter activity; Renilla normaliser: higher = more normaliser reporter signal
Active means: 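a knock-down counted as active when the firefly/Renilla E2F signal rose above 50%, a threshold chosen arbitrarily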

Secp43 (GeneID 33652) gave E2F firefly, rep 1 = 1.38e5; Renilla normaliser, rep 1 = 4586. CG9254 (GeneID 34773) showed E2F firefly, rep 1 = 1.19e5; Renilla normaliser, rep 1 = 4930. After knock-down of NANS (GeneID 41528) the results were E2F firefly, rep 1 = 1.64e5; Renilla normaliser, rep 1 = 6465. For CG15597 (GeneID 40767) the deposit lists E2F firefly, rep 1 = 1.28e5; Renilla normaliser, rep 1 = 6231. With knock-down of Idua (GeneID 34544) the results were E2F firefly, rep 1 = 74417; Renilla normaliser, rep 1 = 3799. Against CG15439 (GeneID 33651), the entry reads E2F firefly, rep 1 = 43368; Renilla normaliser, rep 1 = 3726.

For CG10348 (GeneID 35132), the values are E2F firefly, rep 1 = 1.03e5; Renilla normaliser, rep 1 = 4274. Silencing of Mo25 (GeneID 39858) came out at: E2F firefly, rep 1 = 69726; Renilla normaliser, rep 1 = 3408. Depletion of rdgBbeta (GeneID 37011) resulted in: E2F firefly, rep 1 = 1.48e5; Renilla normaliser, rep 1 = 5784. Silencing of CG32052 (GeneID 326184) came out at: E2F firefly, rep 1 = 1.02e5; Renilla normaliser, rep 1 = 5960. Silencing of Grx1 (GeneID 40053) resulted in: E2F firefly, rep 1 = 1.40e5; Renilla normaliser, rep 1 = 7680. With knock-down of CG1288 (GeneID 40865) the results were E2F firefly, rep 1 = 1.20e5; Renilla normaliser, rep 1 = 5498.

Art1 (GeneID 41295) gave E2F firefly, rep 1 = 70274; Renilla normaliser, rep 1 = 3121. With knock-down of CG15877 (GeneID 38304), the record shows E2F firefly, rep 1 = 99754; Renilla normaliser, rep 1 = 4188. For Acsx1L (GeneID 42351) the deposit lists E2F firefly, rep 1 = 1.36e5; Renilla normaliser, rep 1 = 6596. With knock-down of CG17732 (GeneID 40182), the screen gave E2F firefly, rep 1 = 1.38e5; Renilla normaliser, rep 1 = 6800. After knock-down of CG12831 (GeneID 35631), the record shows E2F firefly, rep 1 = 1.39e5; Renilla normaliser, rep 1 = 4364. Depletion of CG34248 (GeneID 5740883) came out at: E2F firefly, rep 1 = 1.38e5; Renilla normaliser, rep 1 = 4615.

fid (GeneID 43148) #1 scored E2F firefly, rep 1 = 1.08e5; Renilla normaliser, rep 1 = 6189. With knock-down of fid (GeneID 43148) #2, the screen gave E2F firefly, rep 1 = 90074; Renilla normaliser, rep 1 = 5714. Knock-down of CG3604 (GeneID 33593) gave: E2F firefly, rep 1 = 1.53e5; Renilla normaliser, rep 1 = 4916. Against oaf (GeneID 33435), the entry reads E2F firefly, rep 1 = 1.44e5; Renilla normaliser, rep 1 = 5352. Depletion of CG12688 (retired record) (GeneID 31378) #1 came out at: E2F firefly, rep 1 = 84288; Renilla normaliser, rep 1 = 4851. Against CG12688 (retired record) (GeneID 31378) #2 the deposit lists E2F firefly, rep 1 = 53465; Renilla normaliser, rep 1 = 3780.

Against Trmt61 (GeneID 43170) the deposit lists E2F firefly, rep 1 = 1.04e5; Renilla normaliser, rep 1 = 5399. Stip1 (GeneID 33202) gave E2F firefly, rep 1 = 94345; Renilla normaliser, rep 1 = 3540. For CG8369 (GeneID 50005), the entry reads E2F firefly, rep 1 = 1.30e5; Renilla normaliser, rep 1 = 7317. With knock-down of CG7430 (GeneID 39988) the results were E2F firefly, rep 1 = 70882; Renilla normaliser, rep 1 = 3391.

3 of these entries in another layout:
| Gene | reagent | E2F firefly, rep 1 | Renilla normaliser, rep 1 |
| --- | --- | --- | --- |
| oaf (GeneID 33435) | 1 | 1.44e5 | 5352 |
| CG12688 (retired record) (GeneID 31378) | 1 | 84288 | 4851 |
| CG12688 (retired record) (GeneID 31378) | 2 | 53465 | 3780 |
